Assay results as given in the supplement of paper PMC3334620.
The full ranking holds about 33,000 sequences; the median of “E-score (-0.5 to 0.5)” is about -0.016, and the highest 2% start at about 0.3. The list shows a part of the results.

molecular target: T1, Yer184c (UniProt P39961); experiment: PBM E-score (8-mer binding enrichment) (E-score (-0.5 to 0.5)); higher = stronger / more preferred TF binding; settings: protein concentration: 100 nM; construct: GST-full length
T1 sequence: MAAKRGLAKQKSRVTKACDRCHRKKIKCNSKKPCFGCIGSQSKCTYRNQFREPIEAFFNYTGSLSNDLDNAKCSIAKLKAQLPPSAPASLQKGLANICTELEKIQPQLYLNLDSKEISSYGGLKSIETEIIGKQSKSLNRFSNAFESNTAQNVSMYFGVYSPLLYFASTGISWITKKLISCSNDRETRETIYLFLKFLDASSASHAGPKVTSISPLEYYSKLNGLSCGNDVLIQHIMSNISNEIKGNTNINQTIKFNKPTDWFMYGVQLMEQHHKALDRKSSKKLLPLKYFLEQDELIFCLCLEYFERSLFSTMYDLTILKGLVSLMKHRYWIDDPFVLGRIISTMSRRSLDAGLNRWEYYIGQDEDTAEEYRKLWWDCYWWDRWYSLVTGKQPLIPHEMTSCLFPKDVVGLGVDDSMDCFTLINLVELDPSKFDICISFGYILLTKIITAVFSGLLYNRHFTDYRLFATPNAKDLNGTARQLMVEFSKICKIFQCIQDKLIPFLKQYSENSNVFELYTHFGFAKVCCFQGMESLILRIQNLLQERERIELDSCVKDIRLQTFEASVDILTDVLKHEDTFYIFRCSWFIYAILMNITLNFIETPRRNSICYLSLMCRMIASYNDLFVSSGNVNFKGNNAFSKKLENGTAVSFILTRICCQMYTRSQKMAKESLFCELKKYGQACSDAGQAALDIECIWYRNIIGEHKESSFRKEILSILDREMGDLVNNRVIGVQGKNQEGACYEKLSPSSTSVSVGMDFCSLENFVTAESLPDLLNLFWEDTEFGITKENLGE
Method in brief: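 E-scores (a modified Wilcoxon-Mann-Whitney statistic) were assigned by the Universal PBM Analysis Suite to every ungapped eight-base word pooled with its reverse complement. The input came from universal all-10-mer Agilent arrays made double-stranded by primer extension and probed with GST-tagged yeast transcription factors at about 100-200 nM. Fluorescent anti-GST detected bound protein, and masliner normalised the scans.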

Row | Sequence | PBM E-score
1 | CAACCCTG | -0.192
2 | ACCTACGT | -0.206
3 | GGGACTTA | -0.159
4 | CTACGAAG | -0.135
5 | ATCGCACA | -0.178
6 | CATGCACA | -0.0401
7 | GCGCATGA | -0.206
8 | AACGTGGG | -0.276
9 | AGCATCCG | 0.0773
10 | ATGCTCTG | -0.178
11 | CCTCTCGA | -0.29
12 | CAATGTTC | -0.0589
13 | GGATTGTA | 0.0746
14 | ACGGCGCC | 0.122
15 | ATATAGGC | 0.103
16 | ACCGAAAA | 0.349
17 | CAACAAGC | 0.0462
18 | AACCTTAA | 0.145
19 | GGGGCTAA | -0.195
20 | GGGTGCTA | -0.161
21 | TGATTTAA | 0.259
22 | AAAGTCTC | -0.115
23 | GCAATTGC | 0.189
24 | ACAGCGAG | 0.0226
25 | CCACGTGA | -0.0803

Row | Sequence | PBM E-score
26 | GAGACGTA | 0.0588
27 | TCTGAGCA | -0.0905
28 | ACCCTATC | -0.143
29 | ATTTGGAG | -0.028
30 | CCTGTATA | -0.164
31 | ACATTAAA | 0.0822
32 | CCTATTTC | 0.0737
33 | CGTACTCC | 0.0471
34 | ACCGATCG | 0.128
35 | AGTCATAT | 0.053
36 | CGACAGGA | 0.21
37 | AAGCTTAG | 0.0825
38 | ACACTACC | -0.134
39 | AGTGCTAA | 0.0252
40 | TACCTCCA | -0.249
41 | GTCAGCCA | -0.204
42 | AGGGATTG | -0.119
43 | GCGCGGTA | 0.144
44 | GACTACCA | -0.183
45 | CCGGGTAA | 0.348
46 | GAGGCTGC | -0.192
47 | CGAGCCCC | -0.186
48 | CGATACCA | -0.0309
49 | AACCGTGC | 0.147
50 | ACATTCTA | 0.0333

Row | Sequence | PBM E-score
51 | CCAATAGA | -0.0582
52 | CTGACTAA | 0.0484
53 | CGGTAGCC | 0.0955
54 | GGGTATAA | -0.0177
55 | CTGTATCA | -0.111
56 | GAAGAATC | 0.0959
57 | CACTCTGA | -0.268
58 | CAGTTCGA | -0.13
59 | ATTGTTGG | 0.174
60 | AGTGGGAA | 0.0728
61 | CATCTGGA | 0.012
62 | CCGGCGTA | 0.313
63 | CCTTCGAG | -0.192
64 | GATTTTTA | 0.161
65 | GATAGCCC | -0.0885
66 | AACGTGCA | -0.168
67 | AGCACTAG | -0.0941
68 | GTTCATCA | 0.027
69 | GCAGATAC | -0.00051
70 | CTGATATA | 0.138
71 | CTGCGAAA | 0.00134
72 | ACGACTCT | -0.146
73 | CGATCACC | -0.0384
74 | AGCTGACT | 0.0726
75 | CTGTAGTA | 0.149

Row | Sequence | PBM E-score
76 | ATGGAGTC | -0.0451
77 | GAACTGCC | -0.0192
78 | GACCGATA | 0.0857
79 | ATCTGCGA | -0.141
80 | CCCGATCG | 0.0619
81 | ACGCAACT | 0.0668
82 | CTTGGATC | -0.0713
83 | CGGTGGAA | -0.0704
84 | GAAGATAA | 0.261
85 | AACTTAAG | 0.0848
86 | CAAGTCAG | -0.109
87 | AGGGAAAG | -0.114
88 | CACATTAG | -0.177
89 | ATTGCTAA | 0.0939
90 | CGGAACTA | 0.414
91 | AGACGACT | -0.0372
92 | GGATATCC | 0.203
93 | GAATATCC | 0.0955
94 | GATCCGCC | 0.0797
95 | AGGGAGGA | -0.251
96 | ACTGTGGA | -0.198
97 | ATTCCCTG | -0.022
98 | CGCCTGAC | -0.07
99 | GTCGAGCA | -0.234
100 | GTAGCTAC | -0.0667

Row | Sequence | PBM E-score
101 | AGCAGTAG | -0.161
102 | CCGCCTAG | -0.223
103 | AATGGTCC | 0.131
104 | AGACCAGA | -0.073
105 | AAGCGCAA | 0.114
106 | AACGTTGG | -0.0563
107 | AGGAGACT | -0.348
108 | CACGCTCA | -0.00869
109 | CGTGCGCC | 0.0367
110 | ATGTGCGA | -0.122
111 | GCGGATAC | 0.205
112 | ATTGGTCC | 0.0814
113 | CACCAAGA | -0.0152
114 | ATGGCGGA | 0.0828
115 | GGGTAGGA | -0.0324
116 | CTAAAGGA | 0.0788
117 | CTCCACAA | -0.017
118 | CCGAACGG | 0.325
119 | GCCCAAAA | 0.155
120 | ATTTTTTG | 0.146
121 | AGTGGCAA | 0.0115
122 | ATAAGTCG | -0.0353
123 | AACCCTCC | -0.239
124 | CAGCTCGC | -0.0341
125 | AAAGAGCT | -0.0208

Quoted from the listing (48 entries):
Row | Sequence | PBM E-score
78 | GACCGATA | 0.0857
79 | ATCTGCGA | -0.141
80 | CCCGATCG | 0.0619
81 | ACGCAACT | 0.0668
82 | CTTGGATC | -0.0713
83 | CGGTGGAA | -0.0704
84 | GAAGATAA | 0.261
85 | AACTTAAG | 0.0848
86 | CAAGTCAG | -0.109
87 | AGGGAAAG | -0.114
88 | CACATTAG | -0.177
89 | ATTGCTAA | 0.0939
90 | CGGAACTA | 0.414
91 | AGACGACT | -0.0372
92 | GGATATCC | 0.203
93 | GAATATCC | 0.0955
94 | GATCCGCC | 0.0797
95 | AGGGAGGA | -0.251
96 | ACTGTGGA | -0.198
97 | ATTCCCTG | -0.022
98 | CGCCTGAC | -0.07
99 | GTCGAGCA | -0.234
100 | GTAGCTAC | -0.0667
101 | AGCAGTAG | -0.161
102 | CCGCCTAG | -0.223
103 | AATGGTCC | 0.131
104 | AGACCAGA | -0.073
105 | AAGCGCAA | 0.114
106 | AACGTTGG | -0.0563
107 | AGGAGACT | -0.348
108 | CACGCTCA | -0.00869
109 | CGTGCGCC | 0.0367
110 | ATGTGCGA | -0.122
111 | GCGGATAC | 0.205
112 | ATTGGTCC | 0.0814
113 | CACCAAGA | -0.0152
114 | ATGGCGGA | 0.0828
115 | GGGTAGGA | -0.0324
116 | CTAAAGGA | 0.0788
117 | CTCCACAA | -0.017
118 | CCGAACGG | 0.325
119 | GCCCAAAA | 0.155
120 | ATTTTTTG | 0.146
121 | AGTGGCAA | 0.0115
122 | ATAAGTCG | -0.0353
123 | AACCCTCC | -0.239
124 | CAGCTCGC | -0.0341
125 | AAAGAGCT | -0.0208

Continued:

Row | Sequence | PBM E-score
126 | AGTTGAAT | 0.136
127 | AATTTCTC | 0.115
128 | TCCACCAA | -0.0675
129 | ATGGACTG | -0.129
130 | CTGAAAGC | 0.0737
131 | GCAAGCGA | -0.00686
132 | AACCAAGA | 0.134
133 | AAGGGATA | -0.0168
134 | CGACAACC | -0.12
135 | GAAATTTC | -0.0278
136 | AGGACCGC | 0.0318
137 | GAGTACTA | 0.177
138 | AGCTATAG | -0.131
139 | CGACTACA | -0.0829
140 | AGCAAAGA | -0.0138
141 | GGGGGTAC | -0.221
142 | ATTGCTGG | -0.0522
143 | ACGTCTTG | -0.0662
144 | TATCCACA | 0.0788
145 | CTATGGAC | -0.0818
146 | AGTTTCCA | 0.111
147 | CGGGCTGC | 0.0615
148 | CTGGCTAC | -0.13
149 | GATTTATA | 0.297
150 | AACCCTGC | -0.247

Row | Sequence | PBM E-score
151 | CACATATG | -0.165
152 | ACAATCCT | 0.0829
153 | ATGTGTCA | -0.0277
154 | CGTAGCTA | -0.137
155 | AATAATCC | 0.184
156 | GTACCTAA | -0.23
157 | AACTCTGG | -0.119
158 | ACCCGCCC | 0.11
159 | AACGACTT | -0.108
160 | CTTAGAAG | -0.125
161 | AAACGTTG | -0.184
162 | CCCGGGTA | 0.283
163 | GACTCCTA | -0.261
164 | AGCGTATG | -0.105
165 | AGCATCGC | -0.126
166 | CATTCTAC | -0.0223
167 | CAGTCATG | -0.162
168 | CAATACTA | 0.0125
169 | AGCAATAG | 0.0329
170 | GTTCCTCA | 0.145
171 | CGGCTTAA | 0.393
172 | ACCGTGCG | 0.179
